Laboratory results as given in paper PMC5897396.

Protein sequences, listed by entry. Tags and fused reporters are not part of them. Residues count along the entry.
UniProt P23471, residues 25-2315: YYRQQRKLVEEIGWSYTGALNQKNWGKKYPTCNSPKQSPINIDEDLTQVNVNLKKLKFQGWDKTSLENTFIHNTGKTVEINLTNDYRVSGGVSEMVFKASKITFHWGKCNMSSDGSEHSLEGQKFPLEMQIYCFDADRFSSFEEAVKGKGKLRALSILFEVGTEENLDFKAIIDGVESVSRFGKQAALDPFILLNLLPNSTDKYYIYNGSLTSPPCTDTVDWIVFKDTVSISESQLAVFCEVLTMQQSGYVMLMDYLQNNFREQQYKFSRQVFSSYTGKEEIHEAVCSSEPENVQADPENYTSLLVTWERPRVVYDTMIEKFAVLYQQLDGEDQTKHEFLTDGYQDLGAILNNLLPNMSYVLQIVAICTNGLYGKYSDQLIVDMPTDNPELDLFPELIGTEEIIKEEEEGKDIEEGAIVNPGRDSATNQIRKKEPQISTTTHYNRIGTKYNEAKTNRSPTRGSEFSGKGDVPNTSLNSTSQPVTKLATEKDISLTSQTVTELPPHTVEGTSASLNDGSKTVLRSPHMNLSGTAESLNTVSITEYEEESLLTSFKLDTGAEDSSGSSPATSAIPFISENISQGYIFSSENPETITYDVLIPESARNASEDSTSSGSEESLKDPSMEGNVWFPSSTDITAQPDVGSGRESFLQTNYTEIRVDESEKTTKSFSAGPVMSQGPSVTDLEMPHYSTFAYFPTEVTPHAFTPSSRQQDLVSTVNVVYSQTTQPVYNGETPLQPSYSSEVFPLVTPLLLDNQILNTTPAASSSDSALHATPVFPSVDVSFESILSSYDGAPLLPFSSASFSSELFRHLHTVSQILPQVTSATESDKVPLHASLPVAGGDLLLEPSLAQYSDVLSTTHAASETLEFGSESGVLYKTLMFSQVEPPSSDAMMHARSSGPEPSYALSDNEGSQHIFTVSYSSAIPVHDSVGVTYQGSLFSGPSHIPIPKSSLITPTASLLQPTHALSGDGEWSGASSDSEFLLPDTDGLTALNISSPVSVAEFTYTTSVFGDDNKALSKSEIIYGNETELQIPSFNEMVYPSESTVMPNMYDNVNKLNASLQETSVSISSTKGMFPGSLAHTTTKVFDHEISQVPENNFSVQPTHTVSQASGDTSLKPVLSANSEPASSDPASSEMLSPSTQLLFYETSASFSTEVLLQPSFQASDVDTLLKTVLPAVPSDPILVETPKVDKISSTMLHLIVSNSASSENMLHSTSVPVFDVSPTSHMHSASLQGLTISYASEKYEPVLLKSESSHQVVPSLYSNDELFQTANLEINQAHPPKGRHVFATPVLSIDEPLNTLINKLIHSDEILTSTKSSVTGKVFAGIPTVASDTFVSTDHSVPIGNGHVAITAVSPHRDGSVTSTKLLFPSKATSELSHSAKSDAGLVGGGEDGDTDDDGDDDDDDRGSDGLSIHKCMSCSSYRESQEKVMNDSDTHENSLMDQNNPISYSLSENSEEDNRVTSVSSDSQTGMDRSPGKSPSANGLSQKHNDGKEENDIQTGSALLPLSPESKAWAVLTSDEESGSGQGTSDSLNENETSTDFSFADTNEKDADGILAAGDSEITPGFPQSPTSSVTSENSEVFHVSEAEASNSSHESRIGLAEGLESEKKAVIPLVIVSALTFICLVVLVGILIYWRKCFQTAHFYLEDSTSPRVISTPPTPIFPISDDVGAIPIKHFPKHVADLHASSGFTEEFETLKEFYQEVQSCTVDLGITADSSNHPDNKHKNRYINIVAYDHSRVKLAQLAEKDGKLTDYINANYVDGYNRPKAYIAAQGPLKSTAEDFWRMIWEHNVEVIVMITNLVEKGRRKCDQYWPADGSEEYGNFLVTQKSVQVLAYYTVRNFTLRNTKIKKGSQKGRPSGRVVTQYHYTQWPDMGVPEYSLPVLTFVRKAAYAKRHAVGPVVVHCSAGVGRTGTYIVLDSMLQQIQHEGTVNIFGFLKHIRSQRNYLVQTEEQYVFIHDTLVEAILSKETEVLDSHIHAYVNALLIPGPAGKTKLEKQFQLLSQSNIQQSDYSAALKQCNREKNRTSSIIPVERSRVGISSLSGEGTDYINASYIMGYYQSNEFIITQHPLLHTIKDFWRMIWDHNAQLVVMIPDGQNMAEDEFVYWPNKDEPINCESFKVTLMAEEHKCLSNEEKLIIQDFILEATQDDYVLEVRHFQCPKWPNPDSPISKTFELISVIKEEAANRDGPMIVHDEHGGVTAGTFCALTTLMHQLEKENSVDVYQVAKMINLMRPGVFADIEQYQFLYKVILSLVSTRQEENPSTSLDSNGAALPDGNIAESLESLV
UniProt Q15078: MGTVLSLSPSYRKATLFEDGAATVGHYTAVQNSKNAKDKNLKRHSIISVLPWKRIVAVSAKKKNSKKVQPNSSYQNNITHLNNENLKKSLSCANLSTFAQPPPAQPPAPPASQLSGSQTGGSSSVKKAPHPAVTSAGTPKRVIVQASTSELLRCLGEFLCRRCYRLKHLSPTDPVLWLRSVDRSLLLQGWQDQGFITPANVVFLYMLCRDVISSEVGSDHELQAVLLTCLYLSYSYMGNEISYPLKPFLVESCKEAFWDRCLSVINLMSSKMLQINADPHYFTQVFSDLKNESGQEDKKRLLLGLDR

Molecular target: receptor protein tyrosine phosphatase beta/zeta (human (endogenous in HUVEC)) (UniProt P23471)
Assay: affinity purification with mass spectrometry; 3 mg total protein of HUVEC lysate immunoprecipitated with an anti-RPTPβ/ζ antibody; SDS-PAGE, silver stain, in-gel trypsin digestion, MALDI-TOF peptide mass fingerprint

## cyclin-dependent kinase 5 activator 1, p35 (from UniProt Q15078 1-307)
  binding: binds

These are yes or no findings as the source states them, for the method shown. Binding seen in cells or lysates may run through a third protein. Here binding means that the protein was enriched with, or labelled near, the bait; the list need not be complete.
